Experimental data published in article PMC6713708.
These are yes or no findings as the source states them, for the method shown. Binding seen in cells or lysates may run through a third protein. Sequences can lack the tags named with a protein. One block for each binder: values may come before it.

Amino acid sequences for entries named in this document (tags omitted). A change or cut given only in a name is not applied to a line headed by its entry.
UniProt Q9NYM9: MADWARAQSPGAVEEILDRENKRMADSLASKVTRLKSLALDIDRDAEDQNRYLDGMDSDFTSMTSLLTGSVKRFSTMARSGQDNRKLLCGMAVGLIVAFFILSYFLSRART

Target: GST-GS15 (UniProt Q9NYM9)
Experiment: pull-down; GST-Syntaxin5 cytoplasmic domain or GST-GS15 as bait; prey from HeLa cell extract; only the target purified

binding: no binding
B1: GM130 (protein, UniProt Q08379 1-1002)
chain: MWPQPRLPPRPAMSEETRQSKLAAAKKKLREYQQRNSPGVPTGAKKKKKIKNGSNPETTTSGGCHSPEDTPKDNAATLQPSDDTVLPGGVPSPGASLTSMAASQNHDADNVPNLMDETKTFSSTESLRQLSQQLNGLVCESATCVNGEGPASSANLKDLESRYQQLAVALDSSYVTNKQLNITIEKLKQQNQEITDQLEEEKKECHQKQGALREQLQVHIQTIGILVSEKAELQTALAHTQHAARQKEGESEDLASRLQYSRRRVGELERALSAVSTQQKKADRYNKELTKERDALRLELYKNTQSNEDLKQEKSELEEKLRVLVTEKAGMQLNLEELQKKLEMTELLLQQFSSRCEAPDANQQLQQAMEERAQLEAHLGQVMESVRQLQMERDKYAENLKGESAMWRQRMQQMSEQVHTLREEKECSMSRVQELETSLAELRNQMAEPPPPEPPAGPSEVEQQLQAEAEHLRKELEGLAGQLQAQVQDNEGLSRLNREQEERLLELERAAELWGEQAEARRQILETMQNDRTTISRALSQNRELKEQLAELQSGFVKLTNENMEITSALQSEQHVKRELGKKLGELQEKLSELKETVELKSQEAQSLQQQRDQYLGHLQQYVAAYQQLTSEKEVLHNQLLLQTQLVDQLQQQEAQGKAVAEMARQELQETQERLEAATQQNQQLRAQLSLMAHPGEGDGLDREEEEDEEEEEEEAVAVPQPMPSIPEDLESREAMVAFFNSAVASAEEEQARLRGQLKEQRVRCRRLAHLLASAQKEPEAAAPAPGTGGDSVCGETHRALQGAMEKLQSRFMELMQEKADLKERVEELEHRCIQLSGETDTIGEYIALYQSQRAVLKERHREKEEYISRLAQDKEEMKVKLLELQELVLRLVGDRNEWHGRFLAAAQNPADEPTSGAPAPQELGAANQQGDLCEVSLAGSVEPAQGEAREGSPRDNPTAQQIMQLLREMQNPRERPGLGSNPCIPFFYRADENDEVKITVI

binding: no binding
B2: YFP-Golgin45 (protein, UniProt Q9H2G9 1-400)
chain: MTTKNLETKVTVTSSPIRGAGDGMETEEPPKSVEVTSGVQSRKHHSLQSPWKKAVPSESPGVLQLGKMLTEKAMEVKAVRILVPKAAITHDIPNKNTKVKSLGHHKGEFLGQSEGVIEPNKELSEVKNVLEKLKNSERRLLQDKEGLSNQLRVQTEVNRELKKLLVASVGDDLQYHFERLAREKNQLILENEALGRNTAQLSEQLERMSIQCDVWRSKFLASRVMADELTNSRAALQRQNRDAHGAIQDLLSEREQFRQEMIATQKLLEELLVSLQWGREQTYSPSVQPHSTAELALTNHKLAKAVNSHLLGNVGINNQKKIPSTVEFCSTPAEKMAETVLRILDPVTCKESSPDNPFFESSPTTLLATKKNIGRFHPYTRYENITFNCCNHCRGELIAL
